The results in this text go back to patent US12492356B2, “Oxa-sandalwood-type fragrance compounds” (SYMRISE AG, priority 2020, dated 2025).

A short description of data set [1]: Odor description (olfactory evaluation).
Data set [2] can be described thus: Tenacity on blotting-paper substrate (time until the odor can no longer be detected). An excerpt: Tenacity (the so-called lasting effect), a secondary but indeed important property of fragrance compounds, which is also known as adsorptive capacity, describes a compound's ability to adhere to a substrate. Therefore, tenacity describes the ability of a perfume to last, or a fragrance note to retain its characteristic odor. Tenacity thus typically refers to the long-term effectiveness of the fragrance in a perfumed product such as when applied on the skin after use e.g. of a shower gel/toilet soap/deodorant. […] Substantivity describes the ability of a substance to be adsorbed from a usually aqueous phase onto a substrate or also its ability to remain on a substrate after a washing or rinsing operation. This effect is in particular manifested on substrates such as skin, hair and textile fibers (for example cotton, linen, wool and/or synthetic fibers). Tenacity is measured over a defined period of time and refers to samples adhered to a blotting-paper substrate in a defined amount, concentration, temperature and humidity and which are tested by a single member or a panel of experts. The tenacity refers to the time until which the odor can no longer be detected. Initially, for the first day the tenacity is measured hourly, thereafter in days.

SMILES strings stand for the structures. Some entries repeat one wording, which the source may state once for all of them.

Consider `COCC12CC1CC(CC=O)C2(C)C` (stereo not shown) [Compound A, 2-[1-(Methoxymethyl)-2,2-dimethyl-3-bicyclo[3.1.0]hexan-yl]acetaldehyde], for which the Odor description entry in data set [1] was “camphor, pine, raspberry, spicy, heliotropin”.

As for `COCC1=CCC(CCO)C1(C)C` (stereo not shown) [Compound D, 2-[3-(Methoxymethyl)-2,2-dimethyl-cyclopent-3-en-1-yl]-ethanol], the Odor description result in data set [1] was “fresh, woody, fruity and citrus”.

`COCC12CC1CC(CC1CC1(C)C(C)O)C2(C)C` (stereo not shown) [Compound 8, 1-[2-[[1-(methoxymethyl)-2,2-dimethyl-3-bicyclo[3.1.0]hexanyl]methyl]-1-methyl-cyclopropyl]ethanol]: the Odor description result in data set [1] is recorded as “creamy, blooming, sweet”.

In data set [2], `COCC1=CCC(C/C=C(\C)CO)C1(C)C` (stereo not shown) [Compound 1, 4-[3-(Methoxymethyl)-2,2-dimethyl-cyclopent-3-en-1-yl]-2-methyl-but-2-en-1-ol] yielded a Tenacity of 55 days. For the same molecule, the Odor description entry in data set [1] was “sandal, woody”.

In data set [2], `CC/C(=C\CC1CC=C(COC)C1(C)C)CO` (stereo not shown) [Compound 3, 2-Ethyl-4-[3-(methoxymethyl)-2,2-dimethyl-cyclopent-3-en-1-yl]but-2-en-1-ol] registered a Tenacity of 22 days. The Odor description entry in data set [1] is “sandal, woody, creamy”.

Turning to `COCC1=CCC(CC=O)C1(C)C` (stereo not shown) [Compound C, 2-[3-(Methoxymethyl)-2,2-dimethyl-cyclopent-3-en-1-yl]-acetaldehyde], the Odor description entry in data set [1] was “aldehydic, milky, almondy, pistachio, edible”.

On to `COCC12CC1CC(C/C=C(\C)CO)C2(C)C` (stereo not shown) [Compound 6, 4-[1-(Methoxymethyl)-2,2-dimethyl-3-bicyclo[3.1.0]hexan-yl]-2-methyl-but-2-en-1-ol], for which, in data set [1], the Odor description entry is listed as “woody, weaker than compound 3”.

With `CC/C(=C\CC1CC2CC2(COC)C1(C)C)CO` (stereo not shown) [Compound 7, 2-Ethyl-4-[1-(methoxymethyl)-2,2-dimethyl-3-bicyclo[3.1.0]hexanyl]but-2-en-1-ol], the Odor description result in data set [1] is listed as “woody, weaker than compound 3”.

In data set [2], `COCC1=CCC(CCC(C)CO)C1(C)C` (stereo not shown) [Compound 2, 4-[3-(Methoxymethyl)-2,2-dimethyl-cyclopent-3-en-1-yl]-2-methyl-butan-1-ol] registered a Tenacity of 25 days. For the same molecule, in data set [1], the Odor description result is “sandal, woody, creamy”.

Turning to `C=C(CC(C)CO)C1CC=C(COC)C1(C)C` (stereo not shown) [Compound 4, 4-[3-(Methoxymethyl)-2,2-dimethyl-cyclopent-3-en-1-yl]-2-methyl-pent-4-en-1-ol], the Odor description result in data set [1] is “woody, sandal, creamy”.

In the case of `COCC1CCC(CC=O)C1(C)C` (stereo not shown) [Compound B, 2-[3-(Methoxymethyl)-2,2-dimethyl-cyclopentyl]acetaldehyde], the Odor description entry in data set [1] is “herbal, sorrel, green”.

Regarding `C=C(CO)C1CC=C(COC)C1(C)C` (stereo not shown) [2-[3-(methoxymethyl)-2,2-dimethyl-cyclopent-3-en-1-yl]prop-2-en-1-ol], the Odor description result in data set [1] is recorded as “fresh, fruity, weak”.

`COCC1CCC(C/C=C(\C)CO)C1(C)C` (stereo not shown) [Compound 5, 4-[3-(Methoxymethyl)-2,2-dimethyl-cyclo-pentyl]-2-methyl-but-2-en-1-ol]: the Odor description result in data set [1] is recorded as “woody, weaker than compound 3”.
